pIC50: −log10 of the molar value. The match of structure and compound is tentative.
Molecular target: human P2X4 receptors (Homo sapiens, UniProt Q99571)
Assay: Assay B: human P2X4 receptor cell line, mitochondrial photina luminescence (agonist Bz-ATP at EC50)
Type: cell-based

Protein sequences, listed by entry. Tags and fused reporters are not part of them.
UniProt Q99571, whole entry: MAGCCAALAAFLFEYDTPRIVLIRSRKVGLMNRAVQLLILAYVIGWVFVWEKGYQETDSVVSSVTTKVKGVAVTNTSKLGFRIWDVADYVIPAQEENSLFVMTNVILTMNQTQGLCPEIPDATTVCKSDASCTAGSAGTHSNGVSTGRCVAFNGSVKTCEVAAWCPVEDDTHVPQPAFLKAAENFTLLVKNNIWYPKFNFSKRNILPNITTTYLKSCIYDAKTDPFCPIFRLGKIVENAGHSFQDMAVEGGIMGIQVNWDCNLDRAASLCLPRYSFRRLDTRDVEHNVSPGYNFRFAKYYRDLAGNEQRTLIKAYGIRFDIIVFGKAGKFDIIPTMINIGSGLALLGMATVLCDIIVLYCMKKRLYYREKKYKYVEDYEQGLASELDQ

`COc1cc(OC)cc(Oc2ccc(NC(=O)Cc3ccccc3)cc2S(N)(=O)=O)c1` was tested, and the “human P2X4 Assay B avg Efficacy” value (HEK human P2X4 cell line, agonist Bz-ATP at EC50, average) was 71% and the pIC50 (read-out: human P2X4 Assay B avg IC50, HEK human P2X4 cell line, agonist Bz-ATP at EC50, average) was 6.52.
